In assay [1] the target is T1, Fibrillarin (FBL) (human (endogenous in HCC cells)) (UniProt P22087).
T1 sequence: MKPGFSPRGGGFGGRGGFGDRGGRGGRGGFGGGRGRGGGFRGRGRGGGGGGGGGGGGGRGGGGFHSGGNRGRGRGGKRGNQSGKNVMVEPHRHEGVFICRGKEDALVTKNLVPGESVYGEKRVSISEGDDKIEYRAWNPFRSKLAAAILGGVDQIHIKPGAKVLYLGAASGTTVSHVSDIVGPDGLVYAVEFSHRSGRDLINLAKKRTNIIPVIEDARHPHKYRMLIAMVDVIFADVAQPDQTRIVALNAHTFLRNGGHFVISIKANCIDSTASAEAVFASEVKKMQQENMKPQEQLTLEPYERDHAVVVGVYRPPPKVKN
Briefly: co-IP; HCC cell lysates in IP buffer with protease inhibitors, pre-cleared with Protein A/G beads, incubated overnight at 4°C with anti-NOP56 or anti-FBL antibodies; SDS-PAGE, silver staining and reciprocal Western blotting.

The chains behind the UniProt entries cited, without tags or fusion partners.
UniProt O00567: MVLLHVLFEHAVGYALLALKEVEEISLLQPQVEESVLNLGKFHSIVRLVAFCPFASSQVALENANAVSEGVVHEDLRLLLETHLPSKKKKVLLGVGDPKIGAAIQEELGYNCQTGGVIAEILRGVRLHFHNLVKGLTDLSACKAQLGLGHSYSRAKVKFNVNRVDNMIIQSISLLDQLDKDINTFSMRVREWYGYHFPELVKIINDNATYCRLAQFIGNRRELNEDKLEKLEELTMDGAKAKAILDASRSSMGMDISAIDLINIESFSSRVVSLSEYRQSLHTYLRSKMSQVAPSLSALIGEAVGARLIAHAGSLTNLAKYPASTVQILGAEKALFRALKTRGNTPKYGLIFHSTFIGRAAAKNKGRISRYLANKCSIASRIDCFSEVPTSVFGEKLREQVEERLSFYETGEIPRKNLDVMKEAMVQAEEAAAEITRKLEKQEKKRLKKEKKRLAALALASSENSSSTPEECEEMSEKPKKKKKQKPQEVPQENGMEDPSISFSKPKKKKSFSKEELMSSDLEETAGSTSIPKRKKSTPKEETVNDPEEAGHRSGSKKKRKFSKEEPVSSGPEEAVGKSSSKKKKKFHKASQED

Assay [2] addresses Nucleolar protein 5A (NOP56) (human (endogenous in HCC cells)) (UniProt O00567). The assay is described as above.

Results are given in words; binding and its absence hold for the method and conditions named. Binding seen in cells or lysates may run through a third protein. Some binding calls cover weakened binding; strength is not graded here.

For “Nucleolar protein 5A (NOP56) (from UniProt O00567 1-594)”, in assay [1], the binding entry is “binds”.

B1: Fibrillarin (FBL) (protein, UniProt P22087 1-321)
chain: MKPGFSPRGGGFGGRGGFGDRGGRGGRGGFGGGRGRGGGFRGRGRGGGGGGGGGGGGGRGGGGFHSGGNRGRGRGGKRGNQSGKNVMVEPHRHEGVFICRGKEDALVTKNLVPGESVYGEKRVSISEGDDKIEYRAWNPFRSKLAAAILGGVDQIHIKPGAKVLYLGAASGTTVSHVSDIVGPDGLVYAVEFSHRSGRDLINLAKKRTNIIPVIEDARHPHKYRMLIAMVDVIFADVAQPDQTRIVALNAHTFLRNGGHFVISIKANCIDSTASAEAVFASEVKKMQQENMKPQEQLTLEPYERDHAVVVGVYRPPPKVKN
Consider B1, for which the binding entry in assay [2] is on record as “binds”.
